Source: paper PMC8287961
Results are given in words; binding and its absence hold for the method and conditions named. For some assays here: Binding seen in cells or lysates may run through a third protein. Some binding calls cover weakened binding; strength is not graded here.

Amino acid sequences for entries named in this document (tags omitted). A change or cut given only in a name is not applied to a line headed by its entry.
UniProt P83917: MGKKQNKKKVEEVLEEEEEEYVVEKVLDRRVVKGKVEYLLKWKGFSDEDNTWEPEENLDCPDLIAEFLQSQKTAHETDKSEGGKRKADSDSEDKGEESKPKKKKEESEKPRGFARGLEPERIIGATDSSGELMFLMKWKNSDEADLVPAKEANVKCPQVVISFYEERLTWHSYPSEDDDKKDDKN

Columns and labels:
[1] = biological target: GFP-HP1β (BHK cells, F3H bait) (UniProt P83917); experiment: fluorescence three hybrid (F3H) assay; BHK cells with lac operator arrays, transiently transfected; GFP or GFP-HP1β anchored at the lacO spot, accumulation of Ch-CCN at the spot seen by confocal microscopy; fixed 16 h after transfection
[2] = biological target: HP1β phosphorylated at serine 89 (endogenous, mESCs) (mouse (endogenous in mESCs)), P83917; experiment: co-IP; mESC lysate (naive and metastable state; 150 mM NaCl, 0.5% NP40, Benzonase); anti-HP1β-pS89 antibody, protein G beads; washes with 300 mM NaCl; western blot; conditions: remark: other sources report otherwise

binding [1] | binding [2] | Binder
binds | – | Ch-CCN (N-terminal part of the coiled-coil domain of KAP1, aa 250–324) (domain or fragment, UniProt Q62318 250-324) VRNQRKLLASLVKRLGDKHATLQKNTKEVRSSIRQVSDVQKRVQVDVKMAILQIMKELNKRGRVLVNDAQKVTEG
– | binds | KAP1 (endogenous, mESCs), Q62318 1-834 (protein, here or on the partner: phosphoserine at 89) MAASAAATAAASAATAASAASGSPGSGEGSAGGEKRPAASSAAAASAAASSPAGGGGEAQELLEHCGVCRERLRPERDPRLLPCLHSACSACLGPATPAAANNSGDGGSAGDGAMVDCPVCKQQCYSKDIVENYFMRDSGSKASSDSQDANQCCTSCEDNAPATSYCVECSEPLCETCVEAHQRVKYTKDHTVRSTGPAKTRDGERTVYCNVHKHEPLVLFCESCDTLTCRDCQLNAHKDHQYQFLEDAVRNQRKLLASLVKRLGDKHATLQKNTKEVRSSIRQVSDVQKRVQVDVKMAILQIMKELNKRGRVLVNDAQKVTEGQQERLERQHWTMTKIQKHQEHILRFASWALESDNNTALLLSKKLIYFQLHRALKMIVDPVEPHGEMKFQWDLNAWTKSAEAFGKIVAERPGTNSTGPGPMAPPRAPGPLSKQGSGSSQPMEVQEGYGFGSDDPYSSAEPHVSGMKRSRSGEGEVSGLLRKVPRVSLERLDLDLTSDSQPPVFKVFPGSTTEDYNLIVIERGAAAAAAGQAGTVPPGAPGAPPLPGMAIVKEEETEAAIGAPPAAPEGPETKPVLMPLTEGPGAEGPRLASPSGSTSSGLEVVAPEVTSAPVSGPGILDDSATICRVCQKPGDLVMCNQCEFCFHLDCHLPALQDVPGEEWSCSLCHVLPDLKEEDGSLSLDGADSTGVVAKLSPANQRKCERVLLALFCHEPCRPLHQLATDSTFSMEQPGGTLDLTLIRARLQEKLSPPYSSPQEFAQDVGRMFKQFNKLTEDKADVQSIIGLQRFFETRMNDAFGDTKFSAVLVEPPPLNLPSAGLSSQELSGPGDGP
